# PubChem BioAssay AID1259254, NCATS, 2017
# Aim: 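Gene knock-downs that lead to re-replication, shown by excess G2 DNA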 (primary screen)
# Cell system: human HCT116 colorectal cancer cells
# Reagent: single siRNA against human genes
# Time to read-out: 3 days
# Read-out: 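Imaged Hoechst DNA stain sorts each cell into a cycle phase by DNA amount; per plate, G2 fraction set to 0% for non-targeting and 100% for GMNN siRNA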
# Reading the numbers: G2 robust z-score and G2 cells, % of GMNN control: higher = more G2 cells, more excess DNA replication; raw share of cells in G2: higher = larger share of cells with G2 DNA content
# Rule for the call: 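An siRNA counts as active if its G2 robust z-score lies at least 5 MADs above the screen median; here such calls match roughly 38% of GMNN control or more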
# Here is an unselected part of about 59,000 reagents. About 1,550 of all reagents (2.6%) count as active. 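G2 share is only a proxy for re-replication; each gene was hit by three separate siRNAs, and active genes were retested.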 Raw values are not corrected between plates. Unmarked entries are inactive. Reagents against one gene are numbered here. Not given: the amount of reagent.
gene,reagent,G2 robust z-score,"G2 cells, % of GMNN control",raw share of cells in G2 (%)
ASB1 (GeneID 51665),1,-0.607,-1.31,3.14
ASB1 (GeneID 51665),2,-0.0556,2.58,5.36
ASB1 (GeneID 51665),3,2.39,19.8,9.72
CCR10 (GeneID 2826),1,0.0162,3.08,5.59
CCR10 (GeneID 2826),2,-0.841,-2.95,2.36
CCR10 (GeneID 2826),3,4.09,31.8,17.2
RBM45 (GeneID 129831),1,2.65,21.6,12.6
RBM45 (GeneID 129831),2,-0.328,0.663,5.25
RBM45 (GeneID 129831),3,2.13,18,14
CARHSP1 (GeneID 23589),1,1.74,15.2,9.25
CARHSP1 (GeneID 23589),2,0.851,8.95,9.96
CARHSP1 (GeneID 23589),3,-0.102,2.25,4.64
STARD13 (GeneID 90627),1,0.0101,3.04,6.27
STARD13 (GeneID 90627),2,-0.498,-0.536,4.28
STARD13 (GeneID 90627),3,1.92,16.5,13.3
COG6 (GeneID 57511),1,-0.787,-2.57,2.22
COG6 (GeneID 57511),2,0.692,7.83,7.43
COG6 (GeneID 57511),3,-0.784,-2.55,3.24
HOXD12 (GeneID 3238),1,0.47,6.28,7.32
HOXD12 (GeneID 3238),2,-1.46,-7.32,2.9
HOXD12 (GeneID 3238),3,1.14,11,8.22
CAND1 (GeneID 55832),1,-0.514,-0.646,2.56
CAND1 (GeneID 55832),2,1.89,16.3,13.3
CAND1 (GeneID 55832),3,-0.534,-0.788,3.39
LDB3 (GeneID 11155),1,0.0738,3.49,7.77
LDB3 (GeneID 11155),2,0.0439,3.28,5.25
LDB3 (GeneID 11155),3,-1.07,-4.59,2.29
SPAG7 (GeneID 9552),1,-0.675,-1.78,4.03
SPAG7 (GeneID 9552),2,-0.231,1.34,5.71
SPAG7 (GeneID 9552),3,1.8,15.6,8.53
SLC29A3 (GeneID 55315),1,1.89,16.3,10.3
SLC29A3 (GeneID 55315),2,-0.798,-2.65,3.23
SLC29A3 (GeneID 55315),3,1.84,15.9,13.4
NUMA1 (GeneID 4926),1,0.354,5.46,7.29
NUMA1 (GeneID 4926),2,-0.45,-0.197,4.14
NUMA1 (GeneID 4926),3,3.01,24.1,12.1
SCNN1B (GeneID 6338),1,2.12,17.9,11.8
SCNN1B (GeneID 6338),2,0.48,6.34,6.93
SCNN1B (GeneID 6338),3,-0.016,2.86,5.49
SCML4 (GeneID 256380),1,1.99,16.9,9.72
SCML4 (GeneID 256380),2,4.51,34.7,15
SCML4 (GeneID 256380),3,-0.136,2.01,3.84
ZNF22-AS1 (GeneID 220979),1,0.0968,3.65,4.9
ZNF22-AS1 (GeneID 220979),2,0.0987,3.66,4.38
ZNF22-AS1 (GeneID 220979),3,-0.136,2.01,3.84
PRSS42P (GeneID 339906),1,-0.0248,2.79,6.78
PRSS42P (GeneID 339906),2,-1.18,-5.33,2.72
PRSS42P (GeneID 339906),3,-0.263,1.11,4.68

Reformatted: 7 of the entries above.
{"gene": "LDB3 (GeneID 11155)", "reagent": 1, "G2 robust z-score": 0.0738, "G2 cells, % of GMNN control": 3.49, "raw share of cells in G2 (%)": 7.77}
{"gene": "LDB3 (GeneID 11155)", "reagent": 2, "G2 robust z-score": 0.0439, "G2 cells, % of GMNN control": 3.28, "raw share of cells in G2 (%)": 5.25}
{"gene": "LDB3 (GeneID 11155)", "reagent": 3, "G2 robust z-score": -1.07, "G2 cells, % of GMNN control": -4.59, "raw share of cells in G2 (%)": 2.29}
{"gene": "SPAG7 (GeneID 9552)", "reagent": 1, "G2 robust z-score": -0.675, "G2 cells, % of GMNN control": -1.78, "raw share of cells in G2 (%)": 4.03}
{"gene": "SPAG7 (GeneID 9552)", "reagent": 2, "G2 robust z-score": -0.231, "G2 cells, % of GMNN control": 1.34, "raw share of cells in G2 (%)": 5.71}
{"gene": "SPAG7 (GeneID 9552)", "reagent": 3, "G2 robust z-score": 1.8, "G2 cells, % of GMNN control": 15.6, "raw share of cells in G2 (%)": 8.53}
{"gene": "SLC29A3 (GeneID 55315)", "reagent": 1, "G2 robust z-score": 1.89, "G2 cells, % of GMNN control": 16.3, "raw share of cells in G2 (%)": 10.3}
